Measured values as given in PMC12306165.
Results are given in words; binding and its absence hold for the method and conditions named. In cells and extracts the contact can be indirect. These calls come from enrichment with a bait or labelling near it, and not all partners need be listed.

Amino acid sequences for entries named in this document (tags omitted). A change or cut given only in a name is not applied to a line headed by its entry.
UniProt Q8I480: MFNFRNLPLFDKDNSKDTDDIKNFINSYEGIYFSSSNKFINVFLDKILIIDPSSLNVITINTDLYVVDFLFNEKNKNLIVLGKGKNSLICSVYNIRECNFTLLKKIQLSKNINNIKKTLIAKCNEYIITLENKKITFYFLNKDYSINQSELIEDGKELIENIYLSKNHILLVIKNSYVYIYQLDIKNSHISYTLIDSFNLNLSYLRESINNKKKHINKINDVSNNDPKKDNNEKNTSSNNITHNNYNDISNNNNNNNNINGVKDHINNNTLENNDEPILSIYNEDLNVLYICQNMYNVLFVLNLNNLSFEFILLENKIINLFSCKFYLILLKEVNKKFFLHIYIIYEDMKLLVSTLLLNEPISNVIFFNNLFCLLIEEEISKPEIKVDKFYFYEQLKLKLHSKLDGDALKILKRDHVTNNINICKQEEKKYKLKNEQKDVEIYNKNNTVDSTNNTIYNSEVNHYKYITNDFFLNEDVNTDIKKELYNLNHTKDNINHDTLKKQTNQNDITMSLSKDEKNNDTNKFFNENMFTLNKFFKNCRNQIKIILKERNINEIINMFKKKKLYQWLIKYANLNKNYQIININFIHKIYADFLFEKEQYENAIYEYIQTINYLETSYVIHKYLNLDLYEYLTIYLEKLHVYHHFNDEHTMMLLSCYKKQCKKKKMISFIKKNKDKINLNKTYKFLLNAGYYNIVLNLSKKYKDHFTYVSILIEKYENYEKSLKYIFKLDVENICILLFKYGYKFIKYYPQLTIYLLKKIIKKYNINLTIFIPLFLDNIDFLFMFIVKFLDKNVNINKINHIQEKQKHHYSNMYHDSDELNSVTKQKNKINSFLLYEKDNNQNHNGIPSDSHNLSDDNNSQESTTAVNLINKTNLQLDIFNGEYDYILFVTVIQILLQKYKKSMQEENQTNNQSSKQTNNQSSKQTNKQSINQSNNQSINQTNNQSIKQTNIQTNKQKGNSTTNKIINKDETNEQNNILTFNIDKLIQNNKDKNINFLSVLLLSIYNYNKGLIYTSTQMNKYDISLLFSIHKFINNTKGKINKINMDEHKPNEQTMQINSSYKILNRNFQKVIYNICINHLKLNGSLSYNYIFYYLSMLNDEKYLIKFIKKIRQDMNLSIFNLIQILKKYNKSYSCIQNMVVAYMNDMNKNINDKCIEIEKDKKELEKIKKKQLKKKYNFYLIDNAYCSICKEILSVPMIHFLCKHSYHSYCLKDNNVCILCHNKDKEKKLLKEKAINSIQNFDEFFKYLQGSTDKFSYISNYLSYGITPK
UniProt Q8ILL4: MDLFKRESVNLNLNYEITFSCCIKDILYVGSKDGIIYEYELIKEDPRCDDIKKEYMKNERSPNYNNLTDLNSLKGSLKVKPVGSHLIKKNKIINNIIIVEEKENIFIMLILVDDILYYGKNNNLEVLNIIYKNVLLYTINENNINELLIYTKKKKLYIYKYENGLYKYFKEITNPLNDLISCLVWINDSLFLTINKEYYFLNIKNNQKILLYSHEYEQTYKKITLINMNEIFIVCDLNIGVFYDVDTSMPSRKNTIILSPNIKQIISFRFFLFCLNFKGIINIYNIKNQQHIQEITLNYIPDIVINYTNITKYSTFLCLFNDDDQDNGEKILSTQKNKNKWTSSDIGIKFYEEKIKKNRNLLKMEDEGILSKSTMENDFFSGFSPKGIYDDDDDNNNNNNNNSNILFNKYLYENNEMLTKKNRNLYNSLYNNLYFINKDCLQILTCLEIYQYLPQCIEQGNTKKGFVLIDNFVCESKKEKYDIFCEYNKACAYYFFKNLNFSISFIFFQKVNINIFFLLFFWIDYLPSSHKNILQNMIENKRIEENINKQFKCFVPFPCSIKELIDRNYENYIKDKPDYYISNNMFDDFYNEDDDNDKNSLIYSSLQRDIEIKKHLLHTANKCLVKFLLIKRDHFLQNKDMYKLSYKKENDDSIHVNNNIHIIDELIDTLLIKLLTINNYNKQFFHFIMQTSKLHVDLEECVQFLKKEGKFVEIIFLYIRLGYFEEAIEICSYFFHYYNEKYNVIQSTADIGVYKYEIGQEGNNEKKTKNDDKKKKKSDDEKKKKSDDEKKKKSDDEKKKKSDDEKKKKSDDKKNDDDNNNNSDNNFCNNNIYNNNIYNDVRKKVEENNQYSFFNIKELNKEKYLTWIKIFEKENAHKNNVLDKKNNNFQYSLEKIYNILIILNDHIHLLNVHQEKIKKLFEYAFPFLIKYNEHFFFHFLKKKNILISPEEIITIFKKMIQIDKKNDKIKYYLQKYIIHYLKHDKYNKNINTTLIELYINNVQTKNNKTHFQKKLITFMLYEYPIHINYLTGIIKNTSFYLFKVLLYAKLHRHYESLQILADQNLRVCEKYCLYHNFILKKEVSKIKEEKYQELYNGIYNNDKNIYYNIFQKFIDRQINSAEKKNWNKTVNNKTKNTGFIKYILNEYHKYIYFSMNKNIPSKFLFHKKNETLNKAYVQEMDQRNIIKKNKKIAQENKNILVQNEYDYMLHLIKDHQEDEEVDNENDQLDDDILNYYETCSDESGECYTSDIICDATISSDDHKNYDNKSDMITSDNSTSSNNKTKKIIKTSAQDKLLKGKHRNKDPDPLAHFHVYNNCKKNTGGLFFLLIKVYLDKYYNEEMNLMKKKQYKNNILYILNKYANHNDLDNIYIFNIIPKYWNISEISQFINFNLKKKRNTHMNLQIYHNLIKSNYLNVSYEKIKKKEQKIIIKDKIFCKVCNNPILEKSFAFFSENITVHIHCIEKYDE
UniProt C0H539: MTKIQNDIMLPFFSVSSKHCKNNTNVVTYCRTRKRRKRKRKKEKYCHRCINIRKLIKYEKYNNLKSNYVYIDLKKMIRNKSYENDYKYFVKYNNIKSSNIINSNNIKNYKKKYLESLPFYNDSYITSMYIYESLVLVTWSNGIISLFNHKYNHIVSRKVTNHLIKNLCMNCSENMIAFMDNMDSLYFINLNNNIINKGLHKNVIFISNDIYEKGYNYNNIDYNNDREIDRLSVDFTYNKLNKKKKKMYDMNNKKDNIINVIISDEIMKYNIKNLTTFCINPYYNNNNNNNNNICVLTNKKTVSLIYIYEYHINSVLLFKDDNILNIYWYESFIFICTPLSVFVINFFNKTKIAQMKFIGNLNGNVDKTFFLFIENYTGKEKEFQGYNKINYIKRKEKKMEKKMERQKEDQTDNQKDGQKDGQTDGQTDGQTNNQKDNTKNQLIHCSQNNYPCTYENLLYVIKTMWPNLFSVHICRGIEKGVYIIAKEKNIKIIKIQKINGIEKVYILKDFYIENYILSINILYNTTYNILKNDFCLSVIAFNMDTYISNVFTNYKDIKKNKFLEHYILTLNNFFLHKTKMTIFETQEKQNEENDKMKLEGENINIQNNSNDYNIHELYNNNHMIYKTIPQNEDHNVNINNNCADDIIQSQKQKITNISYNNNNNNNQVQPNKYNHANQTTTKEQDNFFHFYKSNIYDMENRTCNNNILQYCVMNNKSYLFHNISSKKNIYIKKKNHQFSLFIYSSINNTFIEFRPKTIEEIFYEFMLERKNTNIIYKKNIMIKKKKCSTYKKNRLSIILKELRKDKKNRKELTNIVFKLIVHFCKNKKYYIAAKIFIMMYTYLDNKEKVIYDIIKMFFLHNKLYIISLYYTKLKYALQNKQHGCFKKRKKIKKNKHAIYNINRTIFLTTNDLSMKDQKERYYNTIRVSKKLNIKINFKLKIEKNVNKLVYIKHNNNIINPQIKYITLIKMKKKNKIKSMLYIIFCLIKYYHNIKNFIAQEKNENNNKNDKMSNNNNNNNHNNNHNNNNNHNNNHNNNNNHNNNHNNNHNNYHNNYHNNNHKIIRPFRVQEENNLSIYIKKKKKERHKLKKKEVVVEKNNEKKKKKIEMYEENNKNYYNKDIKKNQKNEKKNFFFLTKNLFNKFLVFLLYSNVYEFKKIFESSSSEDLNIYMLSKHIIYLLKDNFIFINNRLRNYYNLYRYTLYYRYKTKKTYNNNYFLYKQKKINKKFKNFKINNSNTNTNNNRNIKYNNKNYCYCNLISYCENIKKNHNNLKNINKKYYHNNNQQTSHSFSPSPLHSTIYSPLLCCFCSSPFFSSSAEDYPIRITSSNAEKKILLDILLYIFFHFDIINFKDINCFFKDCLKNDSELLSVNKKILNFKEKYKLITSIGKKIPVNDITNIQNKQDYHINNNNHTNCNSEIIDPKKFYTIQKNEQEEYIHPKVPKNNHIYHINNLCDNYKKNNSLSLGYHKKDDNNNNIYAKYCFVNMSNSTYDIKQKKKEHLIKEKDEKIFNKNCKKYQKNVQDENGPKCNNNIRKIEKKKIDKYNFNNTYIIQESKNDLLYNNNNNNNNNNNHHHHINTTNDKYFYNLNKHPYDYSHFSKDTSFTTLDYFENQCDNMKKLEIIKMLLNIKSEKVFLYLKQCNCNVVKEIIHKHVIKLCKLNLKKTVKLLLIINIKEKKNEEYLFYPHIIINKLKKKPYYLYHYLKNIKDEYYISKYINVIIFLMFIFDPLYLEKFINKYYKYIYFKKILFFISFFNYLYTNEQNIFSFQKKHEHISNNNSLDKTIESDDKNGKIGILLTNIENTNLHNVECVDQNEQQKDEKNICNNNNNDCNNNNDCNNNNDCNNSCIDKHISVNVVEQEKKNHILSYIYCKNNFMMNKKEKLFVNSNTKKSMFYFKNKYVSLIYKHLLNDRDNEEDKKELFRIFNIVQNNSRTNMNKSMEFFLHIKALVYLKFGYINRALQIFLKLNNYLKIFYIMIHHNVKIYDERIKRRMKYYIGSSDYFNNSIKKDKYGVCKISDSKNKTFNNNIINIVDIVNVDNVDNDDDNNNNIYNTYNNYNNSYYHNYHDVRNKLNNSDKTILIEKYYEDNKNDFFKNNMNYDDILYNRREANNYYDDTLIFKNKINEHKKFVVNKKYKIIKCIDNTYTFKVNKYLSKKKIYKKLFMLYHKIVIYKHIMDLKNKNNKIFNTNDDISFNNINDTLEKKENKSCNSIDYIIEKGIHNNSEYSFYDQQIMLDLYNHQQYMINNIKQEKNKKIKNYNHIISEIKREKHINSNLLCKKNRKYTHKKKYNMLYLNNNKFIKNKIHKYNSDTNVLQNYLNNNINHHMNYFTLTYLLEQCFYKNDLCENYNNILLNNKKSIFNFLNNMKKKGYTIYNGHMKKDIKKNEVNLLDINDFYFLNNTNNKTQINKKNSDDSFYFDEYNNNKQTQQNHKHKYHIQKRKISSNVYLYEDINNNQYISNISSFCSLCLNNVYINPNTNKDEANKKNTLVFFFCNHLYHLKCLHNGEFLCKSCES

The substances below were run against PfVps16-2xFKBP-GFP (P. falciparum (endogenous locus in NF54 parasites)) (UniProt Q8I524) (assay: affinity purification with mass spectrometry; anti-GFP mAb-agarose beads on the soluble fraction (1% T-Net) of schizont extracts of the PfVps16-2xFKBP-GFP line, 4°C, washed two times in PBS; untagged NF54 as negative control; two biological replicates, hits enriched at least twofold in both).

binding	Substance
binds	PfVps11 (from UniProt Q8I480)
binds	PfVps3 (from UniProt Q8ILL4)
binds	WD-repeat containing transmembrane protein (PF3D7_0619800) (from UniProt C6KT38 1-2530)
binds	conserved Plasmodium protein (PF3D7_0916400) (from UniProt C0H539 1-2519)
